Data: US9884843B2 (Peloton Therapeutics, Inc., priority 2013, dated 2018)
For at least one compound, name, drawing or mass did not settle the structure.

Amino acid sequences for entries named in this document (tags omitted). A change or cut given only in a name is not applied to a line headed by its entry.
UniProt Q99814: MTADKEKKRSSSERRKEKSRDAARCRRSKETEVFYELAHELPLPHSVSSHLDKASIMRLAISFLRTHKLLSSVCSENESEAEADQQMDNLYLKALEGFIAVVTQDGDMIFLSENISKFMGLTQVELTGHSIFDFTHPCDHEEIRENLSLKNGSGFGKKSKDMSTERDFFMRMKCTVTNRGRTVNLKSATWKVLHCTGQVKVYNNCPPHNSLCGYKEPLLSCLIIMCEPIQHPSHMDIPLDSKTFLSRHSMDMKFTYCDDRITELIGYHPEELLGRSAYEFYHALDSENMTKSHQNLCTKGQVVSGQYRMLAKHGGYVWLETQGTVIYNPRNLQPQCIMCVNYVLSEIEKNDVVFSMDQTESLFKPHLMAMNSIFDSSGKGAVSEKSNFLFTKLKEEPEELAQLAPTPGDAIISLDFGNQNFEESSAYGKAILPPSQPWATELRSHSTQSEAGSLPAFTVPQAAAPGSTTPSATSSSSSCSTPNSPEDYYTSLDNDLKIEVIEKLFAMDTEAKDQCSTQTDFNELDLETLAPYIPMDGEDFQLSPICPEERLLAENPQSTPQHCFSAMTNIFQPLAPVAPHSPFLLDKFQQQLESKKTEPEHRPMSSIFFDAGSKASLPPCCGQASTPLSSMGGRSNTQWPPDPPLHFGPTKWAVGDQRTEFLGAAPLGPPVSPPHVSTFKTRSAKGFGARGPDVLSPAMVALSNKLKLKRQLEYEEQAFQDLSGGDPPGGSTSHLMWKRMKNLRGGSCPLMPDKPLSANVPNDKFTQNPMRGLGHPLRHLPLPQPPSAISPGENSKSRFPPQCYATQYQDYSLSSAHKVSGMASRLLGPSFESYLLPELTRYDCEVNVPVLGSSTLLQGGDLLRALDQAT

Each compound was assayed against HIF-2α HIS TAG-PASB Domain (Homo sapiens, UniProt Q99814). Conditions: displacement of Compound 120 probe; mean; read-out: Mean SPA IC50.
Type: binding
Excerpt: The term “scintillation proximity assay” (SPA) refers to a homogenous assay in which light is emitted when a radiolabeled ligand is brought into close proximity to a radiosensitive bead. The assay typically contains a target protein that contains a tag (e.g., His Tag, Glutathione S-transferase Tag). The tag on the protein is used to bind the target protein to the scintillation bead. Radiolabeled ligand (e.g., labeled with tritium) that binds to the protein is now in close proximity to the bead, and when the raidolabel (e.g., tritium) decays, the high energy particle hits the bead resulting in the emission of light that is detected by a detector, such as photomultiplier tube or CCD camera. When unlabeled ligands or compounds that bind to the protein are used in the assay, they displace the radiolabeled ligand, resulting in loss of signal.
The total assay volume was about 100 μL in the following configuration: 2-μL compound in DMSO, 88 μL buffer with protein and probe and 10 μL of SPA beads. […] To each compound, 88 μL of the buffer solution was then added. […] The percent inhibition was determined and IC50 values were calculated using the Dotmatics system based on the following equation: % inhibition=[(high control−sample)/(high control−low control)]×100.
Compound N#Cc1cc(F)cc(Oc2ccc3c(c2Br)C(=O)C(F)(F)S3(=O)=O)c1 [Compound 47, 3-((4-Bromo-2,2-difluoro-1,1-dioxido-3-oxo-2,3-dihydrobenzo[b]thiophen-5-yl)oxy)-5-fluorobenzonitrile] has an IC50 of 9.69 µM. Compound O=C1c2c(ccc(Oc3cc(F)cc(Cl)c3)c2Br)S(=O)(=O)C12CC2 [Compound 58, 4-Bromo-5-(3-chloro-5-fluoro-phenoxy)-1,1-dioxo-spiro[benzothiophene-2,1′-cyclopropane]-3-one] has an IC50 of 6.32 µM. N#Cc1cc(F)cc(Oc2ccc3c(c2F)C(O)C(F)(F)S3(=O)=O)c1 (stereo not drawn) [Compound 88, 3-Fluoro-5-((2,2,4-trifluoro-3-hydroxy-1,1-dioxido-2,3-dihydrobenzo[b]thiophen-5-yl)oxy)benzonitrile] was tested, and the IC50 was 0.98 µM.
